{"source": "paper PMC4324908", "binders": {"B1": {"name": "myc-tagged mouse Bcr (pCMV6-mBcr-myc, OriGene) (protein, UniProt Q6PAJ1 1-1270)", "chain": "MVDSVGFAEAWRAQFPDSEPPRMELRSVGDIEQELERCKASIRRLEQEVNQERFRMIYLQTLLAKEKKSYDRQRWGFRRAAQPPDGAAEPRASAPRPPPAPADGADPAPVEESEARPDGEGSPSKGRSASARRPAAAASADRDDRGPPTSVAALRSNFEKIRKGPAQPGSADAEKPFYVNVEFHHERGLVKVNDKEVSDRISSLGSQAMQMERKKSQQSAGQGLGEAPRPHYRGRSSESSCGLDGDYEDAELNPRFLKDNLINANGGNRPPWPPLEYQPYQSIYVGGMMVEGEGKSPLLRSQSTSEQEKRLTWPRRSYSPRSFEDSGGGYTPDCSSNENLTSSEEDFSSGQSSRVSPSPTTYRMFRDKSRSPSQNSQQSFDSSSPPTPQCQKRHRQCQVVVSEATIVGVRKTGQIWPSDGDSTFQGEADSSFGTPPGYGCAADQAEEQRRHQDGLPYIDDSPSSSPHLSSKGRGSLASGALDPTKVSELDLEKGLEMRKWVLSGILASEETYLSHLEALLLPMKPLKAAATTSQPVLTSQQIETIFFKVPELYEIHKEFYDGLFPRVQQWSHQQRVGDLFQKLASQLGVYRAFVDNYGVAMETAEKCCQANAQFAEISENLRARSNKDVKDSTTKNSLETLLYKPVDRVTRSTLVLHDLLKHTPSSHPDHSLLQDALRISQNFLSSINEEITPRRQSMTVKKGEHRQLLKDSFMVELVEGARKLRHIFLFTDLLLCTKLKKQSGGKTQQYDCKWYIPLTDLSFQMVDELEALPNIPLVPDEELDALKIKISQIKSDIQREKRANKGSKVMERLRKKLSEQESLLLLMSPSMAFRVHSRNGKSYTFLISSDYERAEWRESIREQQKKCFKSFSLTSVELQMLTNSCVKLQTVHHIPLTINKEDDESPGLYGFLHVIVHSATGFKQSSNLYCTLEVDSFGYFVNKAKTRVYRDTTEPNWNEEFEIELEGSQTLRILCYEKCYNKMKMTKEDGESADKLMGKGQVQLDPQTLQDRDWQRTVIDMNGIEVKLSVKFTSREFSLKRMPSRKQTGVFGVKIAVVTKRERSKVPYIVRQCVEEIERRGMEEVGIYRVSGVATDIQALKAAFDVNNKDVSVMMSEMDVNAIAGTLKLYFRELPEPLFTDEFYPNFAEGIALSDPVAKESCMLNLLLSLPEANLLTFLFLLDHLKRVAEKETVNKMSLHNLATVFGPTLLRPSEKESKLPANPSQPITMTDSWSLEVMSQVQVLLYFLQLEAIPAPDSKRQSILFSTEV"}}, "target": "T1, GFP-fused rat Hap1B (pEGFP-rHap1B) (rat) (UniProt P54256)", "T1 sequence": "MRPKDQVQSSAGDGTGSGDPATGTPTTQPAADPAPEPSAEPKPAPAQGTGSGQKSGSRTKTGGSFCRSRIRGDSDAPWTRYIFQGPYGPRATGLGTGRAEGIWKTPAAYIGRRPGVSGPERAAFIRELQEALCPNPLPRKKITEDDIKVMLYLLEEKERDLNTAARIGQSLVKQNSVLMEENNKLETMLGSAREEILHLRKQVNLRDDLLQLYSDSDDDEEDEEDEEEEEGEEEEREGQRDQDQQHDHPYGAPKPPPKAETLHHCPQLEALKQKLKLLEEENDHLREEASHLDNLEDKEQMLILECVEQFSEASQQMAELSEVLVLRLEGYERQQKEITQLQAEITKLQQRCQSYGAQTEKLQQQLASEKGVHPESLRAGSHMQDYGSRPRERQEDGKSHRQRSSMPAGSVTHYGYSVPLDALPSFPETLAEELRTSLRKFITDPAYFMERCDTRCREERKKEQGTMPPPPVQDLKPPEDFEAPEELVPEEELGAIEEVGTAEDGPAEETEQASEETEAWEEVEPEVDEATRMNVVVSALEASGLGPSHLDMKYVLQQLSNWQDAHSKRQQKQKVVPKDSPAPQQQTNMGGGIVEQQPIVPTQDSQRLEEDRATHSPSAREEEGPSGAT", "test": "co-IP; lysates of neuro-2a cells co-transfected with Bcr-myc and GFP, GFP-Hap1A or GFP-Hap1B; anti-GFP antibody on protein A magnetic beads, overnight at 4 C, 50 mM PIPES pH 6.8, 1 mM EGTA, 1 mM MgSO4; washed with 0.1% NP-40; immunoblot with anti-Bcr and anti-GFP", "note": "These are yes or no findings as the source states them, for the method shown. In cells and extracts the contact can be indirect. Some results given as binding are weak or reduced against the parent protein; the word gives no strength. Sequences can lack the tags named with a protein.", "data": [{"binder": "B1", "values": [{"measurement": "binding", "result": "binds"}]}]}
